Measured values as given in the supplement of paper PMC8426693.
This is one part of the list.

How the values were obtained:
Assay in all cases: NMR binding call after quantification (hit when 2 of 3 NMR criteria are met) (binary (1 = binding, 0 = not binding)); higher = binding
Conditions in all cases: RNA concentration 10 µM; fragment concentration 200 µM; 293 K
SARS-CoV-2 3'-UTR RNA = tested on: SARS-CoV-2 3'-UTR RNA
SARS-CoV-2 3_SL1 RNA = tested on: SARS-CoV-2 3_SL1 RNA
SARS-CoV-2 3_SL1+2 RNA = tested on: SARS-CoV-2 3_SL1+2 RNA
SARS-CoV-2 3_SL2 RNA = tested on: SARS-CoV-2 3_SL2 RNA
SARS-CoV-2 3_SL3base RNA = tested on: SARS-CoV-2 3_SL3base RNA
SARS-CoV-2 3_s2m RNA = tested on: SARS-CoV-2 3_s2m RNA

SMILES	NMR binding call (SARS-CoV-2 3'-UTR RNA)	NMR binding call (SARS-CoV-2 3_SL1 RNA)	NMR binding call (SARS-CoV-2 3_SL1+2 RNA)	NMR binding call (SARS-CoV-2 3_SL2 RNA)	NMR binding call (SARS-CoV-2 3_SL3base RNA)	NMR binding call (SARS-CoV-2 3_s2m RNA)
COc1ccc(Cl)cc1C(=O)NCC(C)C	0	0	0	0	0	0
O=C(NCCN1CCCC1=O)Nc1ccccc1	0	0	0	0	0	0
CNCc1cccc(OC)n1	0	0	0	0	0	0
CC1CCOC1C(=O)Nc1cnns1 (stereo not given)	0	0	0	0	0	0
COc1cccc(C(N)CC(=O)O)c1 (stereo not given)	0	0	0	0	0	0
Cc1nn(C)c(C)c1CC(N)=O	0	0	0	0	0	0
CCOC(=O)c1cc(-c2ccc(C)cc2)no1	1	0	0	0	0	0
CC(c1ccccc1F)N1CCNCC1.Cl.Cl (stereo not given)	0	0	0	0	0	0
OCCN1CCOCC1	0	0	0	0	0	0
CC(=O)N1CCC(C#N)CC1	0	0	0	0	0	0
CC(C)N(C)S(=O)(=O)N1CCNC(=O)C1	0	0	0	0	0	0
CC1=NN(c2ccccc2)C(=O)C1	0	0	0	0	0	0
CC(=O)NCC1CNCCO1 (stereo not given)	0	0	0	0	0	0
CS(=O)(=O)N1CCCC1CN (stereo not given)	0	0	0	0	0	0
Cc1ccc(C(N)=O)c(F)c1	0	0	0	0	0	0
CN(CC(=O)O)C(=O)c1ccccn1	0	0	0	0	0	0
c1csc(-c2ncc[nH]2)c1	0	0	0	0	0	0
Cc1ncc(CNc2cncc(F)c2)s1	0	0	0	0	0	0
Cc1nsc(N2CCCNCC2)n1	0	0	0	0	0	0
CC(C)c1ccc(CN2CCC(O)CC2)cc1	0	0	0	0	0	0
CNC1(C(N)=O)CCCC1	0	0	0	0	0	0
Cc1ncsc1C(=O)N1CCNC(=O)C1	0	0	0	0	0	0
Cn1c(CNC2CCCCC2)nc2ccccc21	0	0	0	0	0	0
O=c1[nH]cc(N2CCOCC2)c(=O)[nH]1	0	0	0	0	0	0

SMILES	NMR binding call (SARS-CoV-2 3'-UTR RNA)	NMR binding call (SARS-CoV-2 3_SL1 RNA)	NMR binding call (SARS-CoV-2 3_SL1+2 RNA)	NMR binding call (SARS-CoV-2 3_SL2 RNA)	NMR binding call (SARS-CoV-2 3_SL3base RNA)	NMR binding call (SARS-CoV-2 3_s2m RNA)
COC(=O)Nc1nnc(CC2CCCC2)s1	0	0	0	0	0	0
CC(C)c1nccn1CC(=O)O	0	0	0	0	0	0
O=C(Nc1cccc(F)c1)c1cnccn1	0	0	0	0	0	0
CC(=O)Nc1ccc(Nc2ccccc2)cc1	0	0	0	0	0	0
Fc1ccc(Cn2cnc3ccccc32)cc1	0	0	0	0	0	0
CCC(=O)Nc1ccc(S(N)(=O)=O)cc1	0	0	0	0	0	0
CNCC1COc2ccccc2O1 (stereo not given)	0	0	0	0	0	0
Cc1noc(C(N)C(C)C)n1 (stereo not given)	0	0	0	0	0	0
CC(C)c1ccc(NC(=O)N2CCOCC2)cc1	0	0	0	0	0	0
CC(=O)N1CCC(N)CC1	0	0	0	0	0	0
N#CCN1CCN(c2cccc(Cl)c2)CC1	0	0	0	0	0	0
CC(CO)(CO)NC(=O)Nc1ccccc1	0	0	0	0	0	0
O=C(c1ccc2c(c1)OCO2)N1CCCCCC1	0	0	0	0	0	0
c1ccc2sc(N3CCOCC3)nc2c1	0	0	0	0	0	0
O=C(CCc1ccccc1)Nc1ccc(O)cc1	0	0	0	0	0	0
CN(C)Cc1ccc(C(=O)O)o1.Cl	0	0	0	0	0	0
CC(=O)NC1CNc2ccccc2C1 (stereo not given)	0	0	0	0	0	0
CCC(NC)c1ccncc1 (stereo not given)	0	0	0	0	0	0
CN1CCN(C(=O)C2CCCO2)CC1 (stereo not given)	0	0	0	0	0	0
Cc1ccccc1OCC(=O)N(C)C	0	0	0	0	0	0
COCC(=O)NCc1ccccc1	0	0	0	0	0	0
Cl.Cl.c1cn(CC2CCCCN2)nn1 (stereo not given)	0	0	0	0	0	0
Cc1csc(NCC2CCCO2)n1 (stereo not given)	0	0	0	0	0	0
O=C(Nc1ccc(Cl)cc1)Nn1cnnc1	0	0	0	0	0	0

SMILES	NMR binding call (SARS-CoV-2 3'-UTR RNA)	NMR binding call (SARS-CoV-2 3_SL1 RNA)	NMR binding call (SARS-CoV-2 3_SL1+2 RNA)	NMR binding call (SARS-CoV-2 3_SL2 RNA)	NMR binding call (SARS-CoV-2 3_SL3base RNA)	NMR binding call (SARS-CoV-2 3_s2m RNA)
CCCn1c(NC(=O)CC)nc2ccccc21	0	0	0	0	0	0
CC(C)c1ncc(Cl)c(C(N)=O)n1	0	0	0	0	0	0
CC(C)(O)CN1CCC(N)C1 (stereo not given)	0	0	0	0	0	0
Clc1snnc1CN1CCOCC1	0	0	0	0	0	0
CCOc1ccc(NC(=O)NC(C)(C)C)cc1	0	0	0	0	0	0
CC(C)COc1ccc(C(=O)N2CCCC2)cc1	0	0	0	0	0	0
CC(=O)N1CCCC(O)(C(=O)O)C1 (stereo not given)	0	0	0	0	0	0
CCn1ccc(CNC)n1	0	0	0	0	0	0
NC(=O)c1c[nH]c(C2CC2)n1	0	0	0	0	0	0
O=C(O)COCc1ccccc1	0	0	0	0	0	0
CCOC(=O)c1cc(-c2ccc(F)cc2)no1	0	0	0	0	0	0
Cc1cnc(NC(=O)CCC2CCCC2)s1	0	0	0	0	0	0
NC(=O)CN1CCN(C(=O)c2ccco2)CC1	0	0	0	0	0	0
Cn1ccc(C(=O)NCC2CCCO2)n1 (stereo not given)	0	0	0	0	0	0
O=C(Nc1ccc(F)cc1F)Nn1cnnc1	0	0	0	0	0	0
CC(=O)c1cccc(NC(=O)N2CCOCC2)c1	0	0	0	0	0	0
CCOc1cccc(C(=O)Nc2nnn(C)n2)c1	0	0	0	0	0	0
CCNC(=O)c1ccc(N(C)C)c(F)c1	0	0	0	0	0	0
O=C(COc1ccc(F)cc1)N1CCCC1	0	0	0	0	0	0
CCc1cc(=O)n2nc(NC)sc2n1	0	0	0	0	0	0
Cc1c(C(=O)NCC2CCC2)cnn1C	0	0	0	0	0	0
Cc1nc(C)n(CCC(=O)O)n1	0	0	0	0	0	0
CC(O)C(=O)NCc1ccccn1 (stereo not given)	0	0	0	0	0	0
CN(CCc1ccccn1)C(=O)c1ccccc1	0	0	0	0	0	0

15 structures out of the list, sorted by SMILES length, falling.
SMILES	NMR binding call (SARS-CoV-2 3'-UTR RNA)	NMR binding call (SARS-CoV-2 3_SL1 RNA)	NMR binding call (SARS-CoV-2 3_SL1+2 RNA)	NMR binding call (SARS-CoV-2 3_SL2 RNA)	NMR binding call (SARS-CoV-2 3_SL3base RNA)	NMR binding call (SARS-CoV-2 3_s2m RNA)
CC(=O)c1cccc(NC(=O)N2CCOCC2)c1	0	0	0	0	0	0
CC(C)COc1ccc(C(=O)N2CCCC2)cc1	0	0	0	0	0	0
CCOc1ccc(NC(=O)NC(C)(C)C)cc1	0	0	0	0	0	0
O=C(CCc1ccccc1)Nc1ccc(O)cc1	0	0	0	0	0	0
CCNC(=O)c1ccc(N(C)C)c(F)c1	0	0	0	0	0	0
CC(=O)N1CCCC(O)(C(=O)O)C1 (stereo not given)	0	0	0	0	0	0
Cn1ccc(C(=O)NCC2CCCO2)n1 (stereo not given)	0	0	0	0	0	0
CN1CCN(C(=O)C2CCCO2)CC1 (stereo not given)	0	0	0	0	0	0
CC(=O)NC1CNc2ccccc2C1 (stereo not given)	0	0	0	0	0	0
CC(O)C(=O)NCc1ccccn1 (stereo not given)	0	0	0	0	0	0
Cc1csc(NCC2CCCO2)n1 (stereo not given)	0	0	0	0	0	0
Clc1snnc1CN1CCOCC1	0	0	0	0	0	0
O=C(O)COCc1ccccc1	0	0	0	0	0	0
CCC(NC)c1ccncc1 (stereo not given)	0	0	0	0	0	0
CCn1ccc(CNC)n1	0	0	0	0	0	0

Going on with the list:

SMILES	NMR binding call (SARS-CoV-2 3'-UTR RNA)	NMR binding call (SARS-CoV-2 3_SL1 RNA)	NMR binding call (SARS-CoV-2 3_SL1+2 RNA)	NMR binding call (SARS-CoV-2 3_SL2 RNA)	NMR binding call (SARS-CoV-2 3_SL3base RNA)	NMR binding call (SARS-CoV-2 3_s2m RNA)
NCc1ccc(-c2cccs2)cc1	0	0	0	0	0	0
OC1CN(C(c2ccccc2)c2ccccc2)C1	0	0	0	0	0	0
CS(=O)(=O)N1CCCC(C(=O)O)C1 (stereo not given)	0	0	0	0	0	0
C1CC(CNC2CC2)CO1 (stereo not given)	0	0	0	0	0	0
O=C(NCc1ccc(F)cc1)Nc1ccccc1	0	0	0	0	0	0
c1cc(-c2noc(C3CCCCC3)n2)ccn1	0	0	0	0	0	0
CC(C)(C)CC(=O)Nc1ccc(F)cc1F	0	0	0	0	0	0
CCC1CCC(NCC2CCCO2)CC1 (stereo not given)	0	0	0	0	0	0
O=C(NCCc1ccccc1)NC1CCCCC1	0	0	0	0	0	0
CN1CCCC(OC(=O)c2ccco2)C1 (stereo not given)	0	0	0	0	0	0
CN(C)CCN1C(=O)c2ccccc2C1=O	0	0	0	0	0	0
Fc1ccccc1CNC1CCOCC1	0	0	0	0	0	0
CNCCC1CCCCC1	0	0	0	0	0	0
O=C(CN1CCCC1)Nc1ccc(F)cc1	0	0	0	0	0	0
O=S1(=O)CCN(Cc2ccco2)CC1	0	0	0	0	0	0
COCc1cc(C(N)=O)no1	0	0	0	0	0	0
CC(C)NC(=O)N(C)C1CCS(=O)(=O)C1 (stereo not given)	0	0	0	0	0	0
c1ccc(SCCN2CCOCC2)cc1	0	0	0	0	0	0
CC1CCN(CCN)CC1	0	0	0	0	0	0
Cc1noc(CN2CCC(CO)CC2)n1	0	0	0	0	0	0
CN(Cc1cccc(F)c1)S(N)(=O)=O	0	0	0	0	0	0
CCC(CO)NC(=O)Nc1ccc(Cl)cc1 (stereo not given)	0	0	0	0	0	0
CC(C)C(=O)N1CCC(Cc2ccccc2)CC1	0	0	0	0	0	0
CCc1ccc(OCC(=O)N2CCCCC2)cc1	0	0	0	0	0	0

SMILES	NMR binding call (SARS-CoV-2 3'-UTR RNA)	NMR binding call (SARS-CoV-2 3_SL1 RNA)	NMR binding call (SARS-CoV-2 3_SL1+2 RNA)	NMR binding call (SARS-CoV-2 3_SL2 RNA)	NMR binding call (SARS-CoV-2 3_SL3base RNA)	NMR binding call (SARS-CoV-2 3_s2m RNA)
CC(C)(C(N)=O)c1ccccc1	0	0	0	0	0	0
CN(C)C(=O)Nc1ccc(S(N)(=O)=O)cc1	0	0	0	0	0	0
CCC(=O)Nc1nnc(C2CCCCC2)s1	0	0	0	0	0	0
COc1ccc(CNC(=O)CC#N)cc1	0	0	0	0	0	0
Oc1ncc(NC2CCCCC2)c(O)n1	0	0	0	0	0	0
CCc1nnc(NC(=O)c2cnccn2)s1	0	0	0	0	0	0
COC(=O)Nc1ccc(Cc2ccncc2)cc1	0	0	0	0	0	0
Cc1ccccc1CNc1nnnn1C	0	0	0	0	0	0
CC(C)C(=O)Nc1cccc(C#N)c1	0	0	0	0	0	0
CNC1CCN(c2ccccc2F)C1=O.Cl (stereo not given)	0	0	0	0	0	0
Cc1ccc(Nc2ncnc3[nH]ncc23)cc1	1	0	0	0	0	0
CC(=O)N1CCCC2(CCCCCC2)C1	0	0	0	0	0	0
CC(=O)Nc1cc2c(cc1C)OCO2	0	0	0	0	0	0
Cc1ccc(CNC(=O)Cc2cccs2)cc1	0	0	0	0	0	0
c1ccc(CNC2CCNC2)cc1 (stereo not given)	0	0	0	0	0	0
CCC(CC)C(=O)Nc1nccs1	0	0	0	0	0	0
CC(=O)N1CCN(c2ccc(Cl)cc2)CC1	0	0	0	0	0	0
CN1CCN(C(=O)c2ccc(F)c(F)c2)CC1	0	0	0	0	0	0
Cc1ccccc1-n1cc(C(=O)O)nn1	0	0	0	0	0	0
Cc1ncc(CN2CCNCC2)s1	0	0	0	0	0	0
Cc1n[nH]c(C)c1-c1ccccc1N	0	0	0	0	0	0
COCC(=O)Nc1ccccc1	0	0	0	0	0	0
CNC(=O)CCC1CCCCC1	0	0	0	0	0	0
Cc1nsc(N2CCOC(C)C2C)n1 (stereo not given)	0	0	0	0	0	0

3 neighbouring compounds from above:
SMILES	NMR binding call (SARS-CoV-2 3'-UTR RNA)	NMR binding call (SARS-CoV-2 3_SL1 RNA)	NMR binding call (SARS-CoV-2 3_SL1+2 RNA)	NMR binding call (SARS-CoV-2 3_SL2 RNA)	NMR binding call (SARS-CoV-2 3_SL3base RNA)	NMR binding call (SARS-CoV-2 3_s2m RNA)
CCc1nnc(NC(=O)c2cnccn2)s1	0	0	0	0	0	0
COC(=O)Nc1ccc(Cc2ccncc2)cc1	0	0	0	0	0	0
Cc1ccccc1CNc1nnnn1C	0	0	0	0	0	0
